Assay results reported in publication doi:10.1101/2025.11.26.690650 (bioRxiv, 2025).
Read-outs that look alike come from different tables or passages of the source. Results are given in words; binding and its absence hold for the method and conditions named.

Key:
[1] = biological target: T1, Turnip crinkle virus P38 protein (TCV P38), wildtype (Turnip crinkle virus) (UniProt P06663); test: native MS
T1 sequence: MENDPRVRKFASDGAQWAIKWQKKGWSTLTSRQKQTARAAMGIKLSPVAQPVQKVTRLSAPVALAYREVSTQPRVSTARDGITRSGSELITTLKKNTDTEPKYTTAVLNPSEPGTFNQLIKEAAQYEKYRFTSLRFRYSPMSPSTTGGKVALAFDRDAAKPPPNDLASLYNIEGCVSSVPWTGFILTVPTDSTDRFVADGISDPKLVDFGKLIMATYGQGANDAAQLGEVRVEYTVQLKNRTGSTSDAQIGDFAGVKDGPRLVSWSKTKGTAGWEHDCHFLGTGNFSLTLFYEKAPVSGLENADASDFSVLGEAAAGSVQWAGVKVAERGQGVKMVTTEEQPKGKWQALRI

[2] = biological target: T1, Turnip crinkle virus P38 protein (TCV P38), wildtype (Turnip crinkle virus); test: native MS; remark: listed apart in the source

TCV P38_W274A (from UniProt P06663 1-351)
binding [1]: no binding | binding [2]: no binding
